Where a chain is given by its changes, count along the chain named. Results are given in words; binding and its absence hold for the method and conditions named. In cells and extracts the contact can be indirect. Binding calls can cover weak binding; strength is not graded here. Sequences can lack the tags named with a protein.
How the values were obtained:
[1] = biological target: T1, Myc-tagged Tensin2 1-1409 (WT, wild-type) (UniProt Q63HR2); test: co-IP; HEK293T co-transfected with Myc-tagged tensin and FLAG-tagged DLC1 (or GFP-tagged DLC2); cleared lysate in NET-N buffer (25 mM Tris-HCl pH 8.0, 50 mM NaCl, 0.2 mM EDTA, 0.1% NP40); anti-Myc antibody overnight at 4°C, protein-A sepharose, 5 washes; blot with anti-FLAG (anti-GFP for DLC2)
T1 sequence: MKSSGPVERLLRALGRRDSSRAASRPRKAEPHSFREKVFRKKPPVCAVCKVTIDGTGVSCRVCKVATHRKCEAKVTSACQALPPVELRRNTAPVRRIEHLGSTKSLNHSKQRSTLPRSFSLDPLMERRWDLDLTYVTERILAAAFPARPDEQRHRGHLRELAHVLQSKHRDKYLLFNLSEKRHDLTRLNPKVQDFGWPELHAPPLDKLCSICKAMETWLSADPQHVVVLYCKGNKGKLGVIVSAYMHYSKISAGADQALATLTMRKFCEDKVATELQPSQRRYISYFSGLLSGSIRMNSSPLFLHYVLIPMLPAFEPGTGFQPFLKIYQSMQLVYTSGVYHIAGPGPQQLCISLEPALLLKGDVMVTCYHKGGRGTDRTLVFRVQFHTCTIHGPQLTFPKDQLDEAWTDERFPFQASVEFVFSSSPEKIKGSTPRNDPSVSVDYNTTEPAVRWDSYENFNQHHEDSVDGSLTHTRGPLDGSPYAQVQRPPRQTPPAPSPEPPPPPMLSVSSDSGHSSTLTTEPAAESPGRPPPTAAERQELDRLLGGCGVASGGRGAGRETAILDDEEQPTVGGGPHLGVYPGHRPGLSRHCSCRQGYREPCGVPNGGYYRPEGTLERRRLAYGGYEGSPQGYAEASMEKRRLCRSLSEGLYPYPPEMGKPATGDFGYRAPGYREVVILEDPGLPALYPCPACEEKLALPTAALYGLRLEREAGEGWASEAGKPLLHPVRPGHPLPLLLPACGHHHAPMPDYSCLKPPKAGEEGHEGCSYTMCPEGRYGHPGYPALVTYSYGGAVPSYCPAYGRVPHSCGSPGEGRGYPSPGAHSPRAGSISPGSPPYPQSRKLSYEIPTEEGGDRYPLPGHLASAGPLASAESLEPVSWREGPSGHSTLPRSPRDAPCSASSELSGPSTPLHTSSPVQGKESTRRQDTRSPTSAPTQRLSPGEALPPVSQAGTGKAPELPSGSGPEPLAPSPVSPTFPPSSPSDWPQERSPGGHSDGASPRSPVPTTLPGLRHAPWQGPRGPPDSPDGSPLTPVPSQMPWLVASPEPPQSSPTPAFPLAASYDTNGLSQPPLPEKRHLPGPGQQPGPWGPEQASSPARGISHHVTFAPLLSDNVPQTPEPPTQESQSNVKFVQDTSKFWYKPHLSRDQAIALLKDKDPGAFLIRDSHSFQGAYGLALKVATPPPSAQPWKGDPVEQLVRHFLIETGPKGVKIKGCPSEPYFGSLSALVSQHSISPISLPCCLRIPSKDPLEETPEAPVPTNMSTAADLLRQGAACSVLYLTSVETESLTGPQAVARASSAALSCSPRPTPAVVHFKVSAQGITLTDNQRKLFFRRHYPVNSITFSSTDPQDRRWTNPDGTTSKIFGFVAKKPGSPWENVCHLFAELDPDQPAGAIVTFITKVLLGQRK

[2] = biological target: T2, Myc-tagged Tensin2 R1165A (UniProt Q63HR2); test: as above
T2 sequence: T1 sequence with R1165A

Substance | binding [1] | binding [2]
FLAG-tagged DLC1 1-440 (from UniProt Q96QB1-1) (domain or fragment) | binds | 
FLAG-tagged DLC1 S440A (human) | binds | binds
FLAG-tagged DLC1 Y442F (human) | binds | binds
FLAG-tagged DLC1 1-380 (from UniProt Q96QB1-2) (domain or fragment) | no binding | 

The remaining lines, values ahead:

binding [1] | binding [2] | Substance
binds |  | FLAG-tagged DLC1 1-385 (from UniProt Q96QB1-1) (domain or fragment)
no binding |  | FLAG-tagged DLC1 1-370 (from UniProt Q96QB1-2) (domain or fragment)

Source: paper PMC2680019
